Laboratory results: PubChem BioAssay AID1259425 (University of Nebraska Medical Center, 2018)
The deposit covers about 14,000 reagents; this is a part drawn at random. The record does not give: the time to read-out.

- Assay: 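Find knockdowns that reproduce the gene expression pattern seen when KSR1 is lost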 (primary screen)
- Cell system: HCT116 human colon cancer cells
- Knock-down reagent: siRNA pool against human genes, 50 nM siRNA
- Measured: 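mRNA of six signature genes measured together by branched-DNA assay after 50 nM siRNA pool, blank removed, divided by geometric mean of two housekeeping genes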
- Scale: BNIP3L mRNA: higher = more BNIP3L transcript after knockdown; NDRG1 mRNA: higher = more NDRG1 transcript after knockdown; BNIP3 mRNA: higher = more BNIP3 transcript after knockdown; ALDOC mRNA: higher = more ALDOC transcript after knockdown; ACSL5 mRNA: higher = more ACSL5 transcript after knockdown

target gene	BNIP3L mRNA, set 1	NDRG1 mRNA, set 1	BNIP3 mRNA, set 1	ALDOC mRNA, set 1	ACSL5 mRNA, set 1
HCAR3	0.197	0.205	0.398	0.058	0.14
IFT22	0.119	0.623	0.357	0.0138	0.276
MED16	0.0489	0.43	0.307	0.034	0.183
GDF10	0.0568	0.0879	0.196	0.0205	0.103
GRWD1	0.243	0.177	0.185	0.0609	0.304
GMPPA	0.163	0.133	0.337	0.0326	0.173
RPL35	0.477	0.743	0.748	0.0308	0.349
NLRP13	0.134	0.157	0.421	0.0214	0.172
RIOK3	0.272	0.0846	0.536	0.00725	0.378
RBM6	0.0732	0.102	0.235	0.0113	0.142
NOP53	0.116	0.359	0.43	0.011	0.233
DMBT1	0.0636	0.21	0.274	0.0374	0.246
P4HA1	0.0735	0.106	0.229	0.00917	0.13
DDA1	0.14	0.0422	0.252	0.0212	0.28
GPER1	0.0777	0.262	0.332	0.0142	0.134
ADAMTS18	0.0661	0.132	0.407	0.0279	0.224
FERRY3	0.082	0.0634	0.204	0.0243	0.133
ITGA4	0.0611	0.0697	0.232	0.0247	0.116
BCKDK	0.104	0.842	0.599	0.0031	0.589
ZNF24	0.102	0.2	0.515	0.0199	0.355
BABAM1	0.117	0.32	0.272	0.0258	0.0809
EXOG	0.118	0.134	0.319	0.0213	0.315
FABP4	0.139	0.121	0.24	0.0203	0.165
CD40	0.103	0.0848	0.111	0.00607	0.101
MFHAS1	0.164	0.113	0.313	0.0145	0.222
ALDH1A3	0.0946	0.223	0.373	0.021	0.31
TAF6	0.122	0.387	0.456	0.00551	0.241
ZNF529	0.737	3.53	3.62	0.561	0.198
PPIF	0.0929	0.131	0.21	0.0242	0.0989
BRSK1	0.179	0.222	0.282	0.0131	0.272
CRB1	0.183	0.262	0.532	0.0498	0.151
DCLRE1B	0.105	0.34	0.232	0.0236	0.192

4 consecutive reagents from above:
target gene	BNIP3L mRNA, set 1	NDRG1 mRNA, set 1	BNIP3 mRNA, set 1	ALDOC mRNA, set 1	ACSL5 mRNA, set 1
RIOK3	0.272	0.0846	0.536	0.00725	0.378
RBM6	0.0732	0.102	0.235	0.0113	0.142
NOP53	0.116	0.359	0.43	0.011	0.233
DMBT1	0.0636	0.21	0.274	0.0374	0.246
